PubChem BioAssay AID1224830, NIAID | 2016

Assay: 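Genes whose knock-down alters the TNF-alpha reporter response to LPS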 (primary screen)
Cells: human THP-1 monocytic leukaemia cells, TNF dual-luciferase reporter clone, PMA-differentiated to macrophage-like cells
Reagent: siRNA pool against human genes, 50 nM
Duration: LPS for 4 h, given about 3 days after siRNA transfection
Challenge: bacterial LPS (TLR4 ligand), 10 ng/ml
Measured: 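TNF firefly reporter luminescence divided by renilla, normalised to the plate median, then turned into a robust z-score for each replicate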
Direction: TNF reporter robust z-score: higher = stronger TNF reporter response to LPS
Call rule: 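Each well counts as active if its z-score is over 2.8 or under -1.5; controls are left without a call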
Here is an unselected part of about 18,000 reagents tested. Of all reagents, about 2,900 (16%) were called active. 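Calls are made per well; low scores hint the gene aids the LPS response, high scores that it dampens it.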 The numbers tell different reagents against one gene apart. Repeated entries: four replicate wells of each siRNA pool.

gene	pool no.	TNF reporter robust z-score	Call
TMEM51 (transmembrane protein 51)	1	0.03	inactive
TMEM51 (transmembrane protein 51)	1	-0.73	inactive
TMEM51 (transmembrane protein 51)	1	-0.82	inactive
TMEM51 (transmembrane protein 51)	1	-0.91	inactive
RAB30 (RAB30, member RAS oncogene family)	1	-0.42	inactive
RAB30 (RAB30, member RAS oncogene family)	1	-0.27	inactive
RAB30 (RAB30, member RAS oncogene family)	1	0.12	inactive
RAB30 (RAB30, member RAS oncogene family)	1	-0.07	inactive
CHID1 (chitinase domain containing 1)	1	-0.31	inactive
CHID1 (chitinase domain containing 1)	1	1.39	inactive
CHID1 (chitinase domain containing 1)	1	0	inactive
CHID1 (chitinase domain containing 1)	1	2.77	inactive
ALOX12 (arachidonate 12-lipoxygenase, 12S type)	1	-1.76	active
ALOX12 (arachidonate 12-lipoxygenase, 12S type)	1	-0.04	inactive
ALOX12 (arachidonate 12-lipoxygenase, 12S type)	1	1.09	inactive
ALOX12 (arachidonate 12-lipoxygenase, 12S type)	1	0.72	inactive
NETO2 (neuropilin and tolloid like 2)	1	0.17	inactive
NETO2 (neuropilin and tolloid like 2)	1	0.33	inactive
NETO2 (neuropilin and tolloid like 2)	1	0.56	inactive
NETO2 (neuropilin and tolloid like 2)	1	0.23	inactive
CEMIP2 (cell migration inducing hyaluronidase 2)	1	-0.64	inactive
CEMIP2 (cell migration inducing hyaluronidase 2)	1	0.2	inactive
CEMIP2 (cell migration inducing hyaluronidase 2)	1	-0.8	inactive
CEMIP2 (cell migration inducing hyaluronidase 2)	1	-0.77	inactive
CEP350 (centrosomal protein 350)	1	-0.4	inactive
CEP350 (centrosomal protein 350)	1	-0.24	inactive
CEP350 (centrosomal protein 350)	1	0.85	inactive
CEP350 (centrosomal protein 350)	1	-0.15	inactive
PCDH11X (protocadherin 11 X-linked)	1	0.07	inactive
PCDH11X (protocadherin 11 X-linked)	1	1.03	inactive
PCDH11X (protocadherin 11 X-linked)	1	0.13	inactive
PCDH11X (protocadherin 11 X-linked)	1	0.79	inactive
OR51E2 (olfactory receptor family 51 subfamily E member 2)	1	0.58	inactive
OR51E2 (olfactory receptor family 51 subfamily E member 2)	1	0.47	inactive
OR51E2 (olfactory receptor family 51 subfamily E member 2)	1	-0.19	inactive
OR51E2 (olfactory receptor family 51 subfamily E member 2)	1	0.35	inactive
TMEM40 (transmembrane protein 40)	1	0.4	inactive
TMEM40 (transmembrane protein 40)	1	1.14	inactive
TMEM40 (transmembrane protein 40)	1	-0.57	inactive
TMEM40 (transmembrane protein 40)	1	0.54	inactive
GEMIN6 (gem nuclear organelle associated protein 6)	1	-1.11	inactive
GEMIN6 (gem nuclear organelle associated protein 6)	1	-0.73	inactive
GEMIN6 (gem nuclear organelle associated protein 6)	1	-0.44	inactive
GEMIN6 (gem nuclear organelle associated protein 6)	1	-0.12	inactive
CGNL1 (cingulin like 1)	1	-0.36	inactive
CGNL1 (cingulin like 1)	1	-0.01	inactive
CGNL1 (cingulin like 1)	1	-1	inactive
CGNL1 (cingulin like 1)	1	-0.57	inactive
KCNK12 (potassium two pore domain channel subfamily K member 12)	1	-0.05	inactive
KCNK12 (potassium two pore domain channel subfamily K member 12)	1	-0.41	inactive
KCNK12 (potassium two pore domain channel subfamily K member 12)	1	0.43	inactive
KCNK12 (potassium two pore domain channel subfamily K member 12)	1	0.63	inactive
GPN1 (GPN-loop GTPase 1)	1	-0.44	inactive
GPN1 (GPN-loop GTPase 1)	1	-0.91	inactive
GPN1 (GPN-loop GTPase 1)	1	0.24	inactive
GPN1 (GPN-loop GTPase 1)	1	0.57	inactive
XPO4 (exportin 4)	1	1.07	inactive
XPO4 (exportin 4)	1	2.09	inactive
XPO4 (exportin 4)	1	0.03	inactive
XPO4 (exportin 4)	1	-0.05	inactive
IFI27 (interferon alpha inducible protein 27)	1	1	inactive
IFI27 (interferon alpha inducible protein 27)	1	0.55	inactive
IFI27 (interferon alpha inducible protein 27)	1	-0.41	inactive
IFI27 (interferon alpha inducible protein 27)	1	0.01	inactive
CDK7 (cyclin dependent kinase 7)	1	-0.03	inactive
CDK7 (cyclin dependent kinase 7)	1	1.04	inactive
CDK7 (cyclin dependent kinase 7)	1	0.92	inactive
CDK7 (cyclin dependent kinase 7)	1	0.76	inactive
MRC1 (mannose receptor C-type 1)	1	-0.37	inactive
MRC1 (mannose receptor C-type 1)	1	1.62	inactive
MRC1 (mannose receptor C-type 1)	1	1.07	inactive
MRC1 (mannose receptor C-type 1)	1	0.61	inactive
MRC1 (mannose receptor C-type 1)	2	2.56	inactive
MRC1 (mannose receptor C-type 1)	2	4.57	active
MRC1 (mannose receptor C-type 1)	2	3.96	active
MRC1 (mannose receptor C-type 1)	2	1.57	inactive
SLC9A3	1	0.2	inactive
SLC9A3	1	0.64	inactive
SLC9A3	1	-0.49	inactive
SLC9A3	1	0.48	inactive
PIK3CD-AS1 (PIK3CD antisense RNA 1)	1	0.7	inactive
PIK3CD-AS1 (PIK3CD antisense RNA 1)	1	1.41	inactive
PIK3CD-AS1 (PIK3CD antisense RNA 1)	1	0.34	inactive
PIK3CD-AS1 (PIK3CD antisense RNA 1)	1	-1.04	inactive
KAAG1 (kidney associated DCDC2 antisense RNA 1)	1	-0.37	inactive
KAAG1 (kidney associated DCDC2 antisense RNA 1)	1	0.38	inactive
KAAG1 (kidney associated DCDC2 antisense RNA 1)	1	0.3	inactive
KAAG1 (kidney associated DCDC2 antisense RNA 1)	1	2.34	inactive
DRD5 (dopamine receptor D5)	1	-1.06	inactive
DRD5 (dopamine receptor D5)	1	-1.28	inactive
DRD5 (dopamine receptor D5)	1	-1.32	inactive
DRD5 (dopamine receptor D5)	1	-1.44	inactive
PPP2R5B (protein phosphatase 2 regulatory subunit B'beta)	1	-0.45	inactive
PPP2R5B (protein phosphatase 2 regulatory subunit B'beta)	1	-0.71	inactive
PPP2R5B (protein phosphatase 2 regulatory subunit B'beta)	1	0.35	inactive
PPP2R5B (protein phosphatase 2 regulatory subunit B'beta)	1	-0.23	inactive
CLIC1 (CLIC family member 1)	1	-0.19	inactive
CLIC1 (CLIC family member 1)	1	-0.31	inactive
CLIC1 (CLIC family member 1)	1	-0.23	inactive
CLIC1 (CLIC family member 1)	1	-0.64	inactive
UST (uronyl 2-sulfotransferase)	1	0.47	inactive
UST (uronyl 2-sulfotransferase)	1	0.78	inactive
UST (uronyl 2-sulfotransferase)	1	-0.06	inactive
UST (uronyl 2-sulfotransferase)	1	-0.24	inactive
RXFP2 (relaxin family peptide receptor 2)	1	-0.69	inactive
RXFP2 (relaxin family peptide receptor 2)	1	-0.37	inactive
RXFP2 (relaxin family peptide receptor 2)	1	-0.75	inactive
RXFP2 (relaxin family peptide receptor 2)	1	-0.47	inactive
POU2F1 (POU class 2 homeobox 1)	1	-1.85	active
POU2F1 (POU class 2 homeobox 1)	1	-1.97	active
POU2F1 (POU class 2 homeobox 1)	1	-1.37	inactive
POU2F1 (POU class 2 homeobox 1)	1	-0.31	inactive
